We go through two molecules from publication PMC9474880.

Protein sequences, listed by entry. Tags and fused reporters are not part of them.
UniProt Q07820: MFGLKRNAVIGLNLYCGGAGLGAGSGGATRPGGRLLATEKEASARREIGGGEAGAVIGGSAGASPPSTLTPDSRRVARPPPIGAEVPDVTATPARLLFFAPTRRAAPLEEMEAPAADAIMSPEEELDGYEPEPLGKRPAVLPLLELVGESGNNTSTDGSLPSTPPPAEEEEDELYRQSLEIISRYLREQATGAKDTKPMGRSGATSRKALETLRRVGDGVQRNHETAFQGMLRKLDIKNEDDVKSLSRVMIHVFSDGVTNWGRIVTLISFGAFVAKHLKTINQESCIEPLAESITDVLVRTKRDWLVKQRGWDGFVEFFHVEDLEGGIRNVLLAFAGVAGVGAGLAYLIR

Experiment [1] addresses MCL-1 (human (endogenous in primary bCAFs)), Q07820. The experiment can be described thus: co-IP; endogenous MCL-1 immunoprecipitated (anti-MCL-1 antibody, Protein A magnetic beads) from 200 ug of CAF lysate in CHAPS 1%, TRIS-HCl 20 mM pH 7.5, NaCl 150 mM, EDTA 1 mM; western blot for MCL-1, DRP1 or NOXA; CAFs treated or not with S63845, in presence or not of Mdivi-1. The note with it: remark: other sources report otherwise.

The target in experiment [2] is MCL-1 (human (endogenous in primary bCAFs)) (UniProt Q07820). The experiment can be described thus: co-IP; as a1, CAFs treated with S63845 (MCL-1 BH3 mimetic) before lysis.

Results are given in words; binding and its absence hold for the method and conditions named. In cells and extracts the contact can be indirect. Some results given as binding are weak or reduced against the parent protein; the word gives no strength.

B1: NOXA, Q13794 1-54 (protein)
chain: MPGKKARKNAQPSPARAPAELEVECATQLRRFGDKLNFRQKLLNLISKLFCSGT
On to B1, for which, in experiment [1], the binding result is given as “binds”.

B2: NOXA (protein, UniProt Q13794 1-54)
chain: B1 chain
As for B2, the binding entry in experiment [2] is “no binding (condition: CAFs treated with S63845)”.
